Results on 61 compounds are retold here after PubChem BioAssay AID796 (Columbia University Molecular Screening Center, 2007).

The list shows a part of the results.

A short description of this assay: inhibitors of IL-1B driven NFkB p65 nuclear import, primary screen, imaging, HUVEC, IL-1B stimulus, high-content imaging (AID 796). The note with it: HUVEC IL-1B NFkB p65 nuclear translocation imaging; cells passing quality filter; at 2 µM; stronger effect = lower value.
Consider `CCOP(C)(=S)SCC(=O)NC(C)(CC)C(=O)O` (stereo unspecified), for which the cell count was found to be 155.
Take `c1nnnn1CCn1cnnn1`: the cell count came to 196.
As for `O=P(Nc1nccs1)(c1ccccc1)c1ccccc1`, the cell count is 199.
With `CP(=O)(Nc1ccc2c(c1)OCCO2)Oc1ccccc1` (stereo unspecified), the cell count is 125.
`CN(C)CCOC(=O)C(O)(c1ccccc1)C1CCCCC1` (stereo unspecified) came in with a cell count of 121.
`O=C(OC1CN2CCC1CC2)c1cccc(Cl)c1` (stereo unspecified) registered a cell count of 147.
As for `CCOC(=O)NC(Sc1ccccc1)C(Cl)(Cl)Cl` (stereo unspecified), the cell count is 124.
`CP(=O)(Nc1ccccc1)Oc1ccc(F)cc1` (stereo unspecified) gave a cell count of 49.
In turn, `COC(=O)c1cc2c(s1)N=C(c1ccccc1)N(C)P2(=O)N1CCOCC1` (stereo unspecified) gave a cell count of 86.
The compound `CCN(CC)CCCOC(=O)C(O)(c1ccccc1)C1CCCCC1` (stereo unspecified) showed a cell count of 94.
As for `CCC(=O)N1C2C3N(C(=O)CC)C1C1N(C(=O)CC)C(C(N1C(=O)CC)N3C(=O)CC)N2C(=O)CC`, the figure is 189; as for `CP(=O)(Nc1ccccc1F)Oc1ccccc1` (stereo unspecified), 187.
In turn, `O=P1(Nc2nc3ccc(Cl)cc3s2)COc2ccccc2O1` (stereo unspecified) gave a cell count of 88.
Under `COc1ccc(OP(C)(=O)Nc2ccccn2)cc1` (stereo unspecified) stands 194; under `CN(C)CCOC(=O)C(O)(c1ccccc1)C1CCCC1` (stereo unspecified), 199; under `CN1CCCC(OC(=O)C(c2ccccc2)c2ccccc2)C1` (stereo unspecified), 202.
In turn, `COc1ccccc1OP(C)(=O)Nc1ccc(C)cc1C` (stereo unspecified) gave a cell count of 121.
Under `CP(=O)(Nc1ccccn1)Oc1ccccc1` (stereo unspecified) stands 179; under `CCc1ccc(OP(C)(=O)O)cc1`, 66.
Turning to `CC(C)CC(=O)NC(Sc1ccc(Cl)cc1)C(Cl)(Cl)Cl` (stereo unspecified), the cell count was 102.
In turn, `Cc1c(NP(C)(=O)Oc2ccc(C(C)C)cc2)c(=O)n(-c2ccccc2)n1C` (stereo unspecified) had a cell count of 150.
`Cc1c2non([O-])c-2c(C)[n+](=O)[n+]1[O-]` displayed a cell count of 217.
`Oc1ccccc1CNc1ccccn1` came in with a cell count of 161.
Regarding `COc1ccccc1OP(C)(=O)Nc1ccc(C)c(C)c1` (stereo unspecified), the cell count was determined as 184.
Under `CCOP(=O)(Nc1ccccc1)OCC` stands 165; under `Cc1nc2ccc3ccccc3c2o1.O=[N+]([O-])c1cc([N+](=O)[O-])c(O)c([N+](=O)[O-])c1`, 184; under `CP(=O)(OC12CC3CC(CC(C3)C1)C2)OC12CC3CC(CC(C3)C1)C2`, 161.
The compound `COc1ccccc1OP(C)(=O)Nc1c(C)n(C)n(-c2ccccc2)c1=O` (stereo unspecified) yielded a cell count of 137.
`O=[N+]([O-])c1cccc2n[nH]nc12` displayed a cell count of 114.
Under `CC(=O)N1C2C3N(C(C)=O)C1C1N(C(C)=O)C(C(N1C(C)=O)N3C(C)=O)N2C(C)=O` stands 175; under `CCc1nc2c(n1)c1c(non1O)c1c2no[n+]1[O-]`, 86.
`CP(=O)(Oc1ccccc1)N1CCOC1=O` (stereo unspecified) came in with a cell count of 185.
In the case of `CCN(CC)CC(O)COC(=O)C(O)(c1ccccc1)C1CCCCC1` (stereo unspecified), the cell count came out at 121.
For the compound `CC1CCN(C(=O)Oc2c(Cl)cc(Cl)c3cccnc23)CC1`, the cell count came to 148.
For `CC(C)(C)c1ccc(OP(C)(=O)O)cc1`, the cell count was 191.
Compound `CP(=O)(Nc1ccc(Cl)cc1)Oc1ccc(F)cc1` (stereo unspecified) gave a cell count of 70.
On to `O=C(COc1ccccc1)OC1CN2CCC1CC2` (stereo unspecified), for which the cell count came out at 171.
`CP(=O)(NC(=O)Nc1ccccc1)Oc1ccccc1` (stereo unspecified): the cell count was 159.
On to `COP1(=S)c2c(C)nn(CCC#N)c2N=C(c2ccc(F)cc2)N1C` (stereo unspecified), for which the cell count came out at 168.
As to `CP(=O)(Nc1ccccn1)Oc1ccc(Cl)cc1` (stereo unspecified), the cell count amounted to 194.
Turning to `CCC(C)N(CC(C)C)C(=S)SC(NC(C)=O)C(Cl)(Cl)Cl` (stereo unspecified), the cell count worked out at 131.
In turn, `CP(=S)(Nn1cnnc1)Oc1ccccc1` (stereo unspecified) returned a cell count of 158.
Under `COc1ccc(OP(C)(=O)Nc2cccc(F)c2)cc1` (stereo unspecified) stands 169.
`CCN(CC)C(=S)SC(NC=O)C(Cl)(Cl)Cl` (stereo unspecified): the cell count came to 210.
Regarding `ClCCSc1nnc(-c2cccnc2)o1`, the cell count is 158.
With `O=C(OC1CN2CCC1CC2)C12CC3CC(CC(C3)C1)C2` (stereo unspecified), the cell count turned out to be 101.
As for `Cc1cccc(OCC(=O)OC2CN3CCC2CC3)c1` (stereo unspecified), the cell count was determined as 64.
`Cc1ccc(C)c(NP(C)(=O)Oc2ccccc2)c1` (stereo unspecified) returned a cell count of 120.
`Cc1cc(C)cc(OP(C)(=O)Nc2ccccn2)c1` (stereo unspecified) had a cell count of 116.
Under `CCOP1(=S)c2c(C)nn(CCC#N)c2N=C(c2ccccc2F)N1C` (stereo unspecified) stands 140.
`O=[N+]([O-])c1ccc2c(c1)nnn2O` registered a cell count of 168.
Under `CCOP1(=S)c2c(C)nn(CCC#N)c2N=C(c2ccc(F)cc2)N1C` (stereo unspecified) stands 181; under `Cc1nn(-c2ccccc2)c2c1P(=O)(N1CCOCC1)N(C)C(c1ccccc1)=N2` (stereo unspecified), 148; under `O=P1(Nc2ccc(Br)cn2)COc2ccccc2OC1`, 100.
Regarding `Cc1ccc(OCC(=O)OC2CN3CCC2CC3)cc1` (stereo unspecified), the cell count was found to be 150.
With `O=P1(Nc2ncccn2)COc2ccccc2OC1`, the cell count came to 115.
`COc1ccccc1OP(C)(=O)Nc1c(C)cccc1C` (stereo unspecified): the cell count was 168.
`Clc1n[nH]nc1-c1nn[nH][15n]1` returned a cell count of 85.
As to `O=P1(Nc2ccccn2)COc2ccccc2OC1`, the cell count turned out to be 133.
As for `Cc1nc2ccc3ccccc3c2s1.O=[N+]([O-])c1cc([N+](=O)[O-])c(O)c([N+](=O)[O-])c1`, the figure is 137.
`CC1(CBr)Cn2c(nc3ccccc3c2=O)S1` (stereo unspecified) displayed a cell count of 80.
